In the odorant receptor screen of Mainland et al. (2015) one finds odorant receptor activation data, which are given here for 13 compounds.

Where “and” joins values, the source holds several entries; their conditions need not be identical. Equal entries are not always repeated. The list shows a part of the results. Each value is one well over the wells without odorant, computed here; the data are noisy.

Common to all, as to assay: odorant receptor activation (CRE luciferase / Renilla) (fold of no-odor wells); higher = more activation
What all share (details): 100 µM

Test [1] relates to OR2AG2 Y28C/R54P/R299G clone 1486.
The subject of test [2] is OR2AJ1 M1V clone 1448.
Test [3] concerns OR2AK2 V188M clone 1415.
The subject of test [4] is OR2AP1 clone 1256.
Test [5] concerns OR2AT4 clone 1522.
Test [6] concerns OR2B11 clone 1418.
Test [7] has as its system OR2B2 clone 1333.
In test [8] the test system is OR2B2 clone 1544.
Test [9] relates to OR2B3 clone 1063.
Test [10] concerns OR2B6 clone 1436.
In test [11] the test system is OR2B8 Indel clone 1076.
Test [12] deals with OR2C1 C149W clone 1282.
Test [13] has as its system OR2C1 G16S/C149W/R229H clone 1408.
The test system of test [14] is OR2C1 P58S/C149W clone 1409.
For test [15], the system named is OR2C1 clone 1406.
Test [16] deals with OR2C1 clone 1407.
For test [17], the system named is OR2C3 T20A/P68S/L289V clone 1454.
The subject of test [18] is OR2D2 clone 1235.
The subject of test [19] is OR2D3 L66I clone 1381.
For test [20], the system named is OR2F1 clone 1082.

In the case of `CCCCCCCOC(C)=O` [heptyl acetate], the odorant receptor activation in test [1] is 0.572 and 1.23; in [2] it was 1.04; in test [3], 1.21; in [4] it was 0.747 and 1.25; in test [5], 0.77 and 1.62; in [6], 0.998. Also, the odorant receptor activation in test [7] was 0.823 and 0.789; in test [8], 0.763 and 1.02; in test [9], 0.612; in test [10], 0.883; in [11] it was 1.03; in test [12], 0.806 and 0.81. In addition, the odorant receptor activation in test [13] stood at 1.19; in test [14], 1.17; in [15], 1.3; in [16], 0.919; in [17], 0.993; in test [18], 0.5. The odorant receptor activation amounted to 0.996 in test [19] and 1.83 in test [20].

Consider `CCC1(O)C2(C)CCC(C2)C1(C)C` (stereo not given) [2-ethylfenchol], for which the odorant receptor activation worked out at 1.15 in test [1]; 0.836 in test [2]; 1.04 in test [3]; 1.09 in test [4]; 1.34 in test [5]; 0.999 in [6]. Also, the odorant receptor activation amounted to 0.712 in test [7]; 1.21 in [8]; 10.8 in test [9]; 1.22 in [10]; 4.4 in test [11]; 1.25 in test [12]. Also, the odorant receptor activation in test [13] amounted to 1.23; in test [14], 1.47; in [15], 0.977; in test [16] it was 1.05; in test [17], 0.891; in test [18], 0.718. For the same compound, the odorant receptor activation in test [19] was found to be 1.34; in test [20], 2.38.

Take `C=CCc1ccc(OC)c(OC)c1` [eugenol methyl ether]: the odorant receptor activation is 1.59 in test [1]; 1.58 in [2]; 1.62 in test [3]; 1.59 in test [4]; 1.87 in test [5]; 1.3 in [6]. For the same compound, the odorant receptor activation was 1.72 in test [7]; 1.64 in test [8]; 1.39 in test [9]; 1.8 in [10]; 1.39 in test [11]; 1.78 in [12]. Further, the odorant receptor activation in test [13] was 1.48; in test [14] it was 1.31; in test [15], 1.13; in test [16] it was 1.31; in test [17] it was 0.904; in test [18] it was 0.531. The odorant receptor activation in [19] and in [20] was 1.51 in each case.

Take `CC(=O)OC(C)(C)C1CC=C(C)CC1` (stereo not given) [terpinyl acetate]: the odorant receptor activation is 0.964 in test [1]; 0.958 in test [2]; 0.976 in test [3]; 0.934 in test [4]; 1.29 in test [5]; 1.06 in test [6]. Besides, the odorant receptor activation was found to be 0.812 in test [7]; 1.24 in test [8]; 1.52 in [9]; 1.01 in [10]; 1.78 in [11]; 1.01 in test [12]. In addition, the odorant receptor activation amounted to 0.991 in [13]; 0.996 in test [14]; 0.749 in test [15]; 0.963 in [16]; 0.936 in test [17]; 1.12 in test [18]. Further, the odorant receptor activation was 1.1 in [19] and 1.74 in test [20].

For `COc1cc(C)ccc1O` [2-methoxy-4-methylphenol], the odorant receptor activation in test [1] was found to be 0.773; in test [2], 0.845; in test [3] it was 0.802; in test [4], 0.8; in test [5], 0.937; in [6], 1.57. Besides, the odorant receptor activation was 1.3 in test [7]; 1.02 in test [8]; 4.7 in test [9]; 1.21 in test [10]; 1.85 in test [11]; 0.959 in [12]. Besides, the odorant receptor activation in [13] was determined as 1.42; in test [14], 1.73; in test [15], 1.11; in test [16], 0.85; in [17] it was 0.826; in test [18], 0.857. Moreover, the odorant receptor activation in test [19] turned out to be 0.514; in [20], 1.28.

As for `O=C1CCCCCCCCCCCCCCO1` [pentadecalactone], the odorant receptor activation amounted to 0.758 in test [1]; 1.22 in test [2]; 1.18 in [3]; 0.717 in [4]; 0.952 in test [5]; 1.23 in [6]. The odorant receptor activation was 0.538 in test [7]; 0.846 in test [8]; 0.749 in [9]; 1.24 in test [10]; 1.02 in test [11]; 0.811 in test [12]. The odorant receptor activation in [13] was 1.27; in test [14] it was 1.17; in test [15], 0.922; in [16], 1.28; in test [17], 1.02; in [18], 0.934. Moreover, the odorant receptor activation in test [19] is 1.21; in test [20], 0.868.

On to `C=C(C)C1CC=CCC1` (stereo not given) [r-limonene], for which the odorant receptor activation in [1] is 1.05 and 0.962 and 0.929; in test [2], 1.16 and 0.894 and 0.687; in [3], 1.3 and 0.985; in test [4], 0.87 and 0.701; in [5] it was 1.02 and 1.16 and 0.798; in [6] it was 1.72 and 0.705. Further, the odorant receptor activation in test [7] is 0.731 and 0.332; in test [8], 1.14; in [9] it was 1.2 and 1.64; in test [10], 1.24 and 0.969; in test [11] it was 1.11 and 1.46; in test [12], 1.14 and 1.11. The odorant receptor activation was 1.24 and 1.13 in [13]; 0.992 and 1.28 in test [14]; 0.949 and 0.848 in test [15]; 1.2 and 0.974 in test [16]; 0.938 in test [17]; 1.25 in [18]. The odorant receptor activation in [19] is 1.31 and 0.836; in test [20] it was 1.14 and 1.92.

`COc1cc(C=O)ccc1O` [vanillin]: the odorant receptor activation in test [1] was 0.963; in [2], 0.887; in test [3] it was 0.95; in test [4] it was 1.07; in test [5], 1.03; in [6], 1.15. Besides, the odorant receptor activation came out at 0.994 in test [7]; 0.859 in [8]; 1.11 in test [9]; 0.887 in [10]; 0.879 in test [11]; 1.23 in test [12]. The odorant receptor activation in test [13] came out at 0.995; in test [14], 1.16; in test [15] it was 0.843; in test [16], 0.956; in [17], 1.06; in [18], 0.868. The odorant receptor activation in [19] stood at 0.943; in [20] it was 1.01.

Regarding `CC1CCC(C(C)C)C(O)C1` (single isomer, unassigned; (+)) [(+)-menthol], the odorant receptor activation was 0.946 in test [1]; 1.26 in test [2]; 1.13 in test [3]; 0.982 in [4]; 1.16 in [5]; 1.35 in test [6]. The odorant receptor activation in [7] was 1.1; in test [8] it was 1.22; in [9], 9.96; in [10] it was 1.37; in test [11], 3.42; in test [12], 1.49. Moreover, the odorant receptor activation in test [13] came out at 1.32; in test [14], 1.57; in test [15], 1.38; in [16], 1.05; in test [17], 1.13; in [18], 0.754. Besides, the odorant receptor activation in test [19] came out at 0.382; in test [20], 2.8.

Regarding `CC/C=C\CCO` [cis-3-hexen-1-ol], the odorant receptor activation was 0.704 in [1]; 0.145 in test [2]; 0.266 in test [3]; 0.728 in test [4]; 1.07 in test [5]; 0.291 in test [6]. Besides, the odorant receptor activation is 0.773 in test [7]; 0.943 in test [8]; 1.16 in test [9]; 0.242 in [10]; 1.01 in [11]; 0.851 in test [12]. Besides, the odorant receptor activation in test [13] worked out at 0.389; in test [14], 0.326; in test [15], 0.424; in test [16] it was 0.321; in test [17] it was 1.32; in [18] it was 0.966. Further, the odorant receptor activation came out at 0.257 in test [19] and 1.09 in test [20].

In the case of `C=CCc1ccc(OC(C)=O)c(OC)c1` [eugenol acetate], the odorant receptor activation in [1] amounted to 1.66; in test [2], 1.78; in [3], 1.68; in [4], 1.7; in test [5] it was 2.02; in test [6] it was 1.12. For the same compound, the odorant receptor activation came out at 1.75 in [7]; 1.94 in test [8]; 1.8 in test [9]; 1.7 in [10]; 1.71 in test [11]; 1.55 in [12]. For the same compound, the odorant receptor activation was 1.28 in [13]; 1.29 in test [14]; 1.41 in test [15]; 1.45 in test [16]; 1.73 in test [17]; 2.09 in test [18]. Further, the results for the odorant receptor activation in test [19] and in test [20] were 1.82 and 1.69, respectively.

With `c1cnccn1` [pyrazine], the odorant receptor activation amounted to 0.78 in test [1]; 1.21 in [2]; 1.11 in [3]; 0.712 in test [4]; 1.01 in test [5]; 1.45 in [6]. Moreover, the odorant receptor activation in test [7] was 0.672; in [8], 0.957; in test [9], 1.22; in [10] it was 1.24; in test [11], 0.895; in test [12], 0.934. Moreover, the odorant receptor activation in test [13] turned out to be 1.2; in [14], 0.941; in [15] it was 0.99; in test [16], 1.08; in test [17] it was 1.27; in test [18], 0.904. For the same compound, the odorant receptor activation in [19] was 1.13; in test [20] it was 0.977.

For the compound `O=CCc1ccccc1` [phenyl acetaldehyde], the odorant receptor activation in test [1] is 0.979; in [2], 1.55; in test [3] it was 1.4; in test [4], 1.08; in test [5] it was 1.33; in test [6] it was 1.68. In addition, the odorant receptor activation is 1.05 in test [7]; 1.35 in [8]; 1.26 in test [9]; 1.47 in [10]; 0.933 in test [11]; 1.85 in test [12]. For the same compound, the odorant receptor activation in test [13] is 1.63; in [14], 1.3; in test [15], 1.48; in test [16], 1.84; in test [17], 1.08; in test [18], 2.92. In addition, the odorant receptor activation was determined as 1.6 in test [19] and 1.24 in [20].
